The assay deals with p11 (S100A10) (mouse (endogenous in DRN)) (UniProt P08207). The assay is described as follows: affinity purification with mass spectrometry; protein extracted from mouse DRN incubated with primary antibodies (anti-p11) or control IgG overnight at 4 °C, protein A/G magnetic beads 2 h, washed 3 times with lysis buffer; SDS-PAGE, gel slices, LC-MS/MS (IP-MS).

The chains behind the UniProt entries cited, without tags or fusion partners. Residues count along the entry.
UniProt P08207: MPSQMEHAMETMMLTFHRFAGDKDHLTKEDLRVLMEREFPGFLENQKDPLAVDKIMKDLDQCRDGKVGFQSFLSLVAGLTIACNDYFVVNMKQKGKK
UniProt P07356: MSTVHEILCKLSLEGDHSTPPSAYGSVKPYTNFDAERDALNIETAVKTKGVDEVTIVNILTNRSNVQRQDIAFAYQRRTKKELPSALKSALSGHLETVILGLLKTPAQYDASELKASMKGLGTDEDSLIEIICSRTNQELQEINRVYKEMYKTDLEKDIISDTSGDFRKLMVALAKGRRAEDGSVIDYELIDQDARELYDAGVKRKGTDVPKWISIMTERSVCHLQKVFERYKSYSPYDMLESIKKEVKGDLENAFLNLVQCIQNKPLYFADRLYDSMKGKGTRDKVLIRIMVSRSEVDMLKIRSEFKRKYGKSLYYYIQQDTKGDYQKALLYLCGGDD
UniProt Q01097, residues 27-1482: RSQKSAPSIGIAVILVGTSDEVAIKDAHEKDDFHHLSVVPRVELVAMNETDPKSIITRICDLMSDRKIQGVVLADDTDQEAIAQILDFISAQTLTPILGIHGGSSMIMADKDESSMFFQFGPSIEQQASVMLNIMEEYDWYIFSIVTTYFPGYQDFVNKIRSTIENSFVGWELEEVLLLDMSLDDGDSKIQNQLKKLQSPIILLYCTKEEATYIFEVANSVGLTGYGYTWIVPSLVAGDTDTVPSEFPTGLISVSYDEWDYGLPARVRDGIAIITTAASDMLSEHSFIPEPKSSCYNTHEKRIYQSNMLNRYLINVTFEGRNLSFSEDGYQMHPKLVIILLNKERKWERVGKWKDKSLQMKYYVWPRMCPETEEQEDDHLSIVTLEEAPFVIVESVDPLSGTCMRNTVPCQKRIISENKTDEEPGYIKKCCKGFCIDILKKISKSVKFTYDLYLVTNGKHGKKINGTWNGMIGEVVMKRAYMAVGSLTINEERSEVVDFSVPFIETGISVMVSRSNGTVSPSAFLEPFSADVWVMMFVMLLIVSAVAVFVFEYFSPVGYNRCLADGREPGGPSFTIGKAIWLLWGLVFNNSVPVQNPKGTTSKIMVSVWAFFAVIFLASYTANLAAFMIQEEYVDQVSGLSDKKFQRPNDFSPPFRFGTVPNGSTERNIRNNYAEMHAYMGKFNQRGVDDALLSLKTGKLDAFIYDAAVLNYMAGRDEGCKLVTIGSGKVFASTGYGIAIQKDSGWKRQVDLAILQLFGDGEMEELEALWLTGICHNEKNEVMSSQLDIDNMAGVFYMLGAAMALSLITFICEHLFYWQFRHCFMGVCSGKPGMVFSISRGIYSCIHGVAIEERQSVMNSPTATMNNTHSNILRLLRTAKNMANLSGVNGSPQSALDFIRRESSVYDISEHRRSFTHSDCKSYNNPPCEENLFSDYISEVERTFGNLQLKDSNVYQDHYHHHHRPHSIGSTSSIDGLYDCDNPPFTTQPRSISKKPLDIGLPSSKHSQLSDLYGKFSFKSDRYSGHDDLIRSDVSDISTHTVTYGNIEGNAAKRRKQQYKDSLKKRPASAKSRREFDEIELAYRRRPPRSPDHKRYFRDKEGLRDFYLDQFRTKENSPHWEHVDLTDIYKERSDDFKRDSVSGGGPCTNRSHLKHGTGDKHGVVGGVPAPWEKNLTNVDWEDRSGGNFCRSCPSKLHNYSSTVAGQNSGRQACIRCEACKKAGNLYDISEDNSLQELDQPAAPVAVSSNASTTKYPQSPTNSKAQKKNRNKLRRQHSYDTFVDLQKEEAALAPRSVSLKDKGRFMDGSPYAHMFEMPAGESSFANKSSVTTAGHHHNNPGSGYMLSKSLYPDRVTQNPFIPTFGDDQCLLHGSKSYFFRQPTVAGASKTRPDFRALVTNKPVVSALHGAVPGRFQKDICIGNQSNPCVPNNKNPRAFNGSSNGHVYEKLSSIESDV

The values below come from PMC10665321.

No constants are given. Whether binding was seen depends on the method and setting. Binding seen in cells or lysates may run through a third protein. These calls come from enrichment with a bait or labelling near it, and not all partners need be listed.

Regarding Annexin A2 (from UniProt P07356 1-339), the binding entry is “binds”. In the case of “GluN2A (from UniProt P35436 23-1464) (receptor)”, the binding result is reported as “binds”. Take “GluN2B (from UniProt Q01097 27-1482) (receptor)”: the binding result is listed as “binds”.
